{
  "source": "PubChem BioAssay AID493014",
  "about": "(National Center for Advancing Translational Sciences (NCATS), 2011)",
  "assay": "qHTS Assay to Find Inhibitors of Chronic Active B-Cell Receptor Signaling",
  "conditions": "ABC-DLBCL IkBa-CBG/CBR reporter, luminescence ratio (green luciferase fused to IkBa over red control in TMD8 lymphoma cells), 4 h",
  "how_it_was_run": "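Doxycycline induced both beetle luciferases in TMD8 lymphoma cells; IKK-driven degradation limits the IkappaBalpha-fused green signal, while red luminescence normalises for cell number and nonspecific effects. Compounds tested up to 46 uM, 4 hrs.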",
  "key": {"[1]": {"conditions": "measured here: CBR red luminescence, cell number"}},
  "note": "Some of the results follow. These are further read-outs of the screen, such as a control signal, another cell line or another target. No call is given for them. Compounds called inactive in the main read-out are mostly missing here. The note in brackets gives the kind of curve behind each potency; many fits are weak.",
  "data": [
    {"compound": "O=C(CSc1nnc(-c2ccccc2)o1)NC1CCCCC1", "values": [
      {"measurement": "AC50", "setting": "[1]", "value": "0.00517 µM [falling, full curve, poor fit]"}
    ]},
    {"compound": "C/C(=N\\NC(=O)c1ccccc1Cl)c1ccccn1", "values": [
      {"measurement": "AC50", "setting": "measured here: IkBa-CBG green luminescence", "value": "25.1 µM [falling, single point]"}
    ]},
    {"compound": "CCC(C)(C)C1CCc2nc3ccccc3c(C(=O)OC(C)C(=O)Nc3c(C)n(C)n(-c4ccccc4)c3=O)c2C1", "note": "(stereo not drawn)", "values": [
      {"measurement": "AC50", "setting": "[1]", "value": "5.17 µM [rising, full curve]"}
    ]},
    {"compound": "O=C(CC1=NC2(CCCC2)Cc2ccccc21)N1CCOCC1", "values": [
      {"measurement": "AC50", "setting": "[1]", "value": "11.2 µM [falling, single point]"}
    ]},
    {"compound": "C/C(=N\\NC(=O)c1ccco1)c1ccc(C(=O)O)s1", "values": [
      {"measurement": "AC50", "setting": "[1]", "value": "10 µM [falling, partial curve, poor fit]"}
    ]},
    {"compound": "COc1ccc(CN2CCNC(=O)C2CC(=O)N2CCCCO2)c(OC)c1", "note": "(stereo not drawn)", "values": [
      {"measurement": "AC50", "setting": "[1]", "value": "0.708 µM [rising, full curve, poor fit]"}
    ]},
    {"compound": "O=C(NNC(=O)c1cc2ccccc2oc1=O)c1ccccc1[N+](=O)[O-]", "values": [
      {"measurement": "AC50", "setting": "[1]", "value": "2.82 µM [falling, partial curve, poor fit]"}
    ]},
    {"compound": "COc1ccccc1NC(=O)CSc1nnc(C2CCCCC2)n1-c1ccccc1", "values": [
      {"measurement": "AC50", "setting": "[1]", "value": "10 µM [falling, partial curve, poor fit]"}
    ]},
    {"compound": "CC1CCN(C(=O)COC(=O)c2n[nH]c(=O)c3ccccc23)CC1", "values": [
      {"measurement": "AC50", "setting": "[1]", "value": "6.51 µM [rising, single point]"}
    ]},
    {"compound": "Cc1nc2ccccc2n1C(=O)c1ccccc1[N+](=O)[O-]", "values": [
      {"measurement": "AC50", "setting": "[1]", "value": "0.82 µM [rising, full curve, poor fit]"}
    ]},
    {"compound": "COc1cccc(C(=O)Nc2ccc(NC(=O)C3CC=CCC3C(=O)O)cc2)c1", "note": "(stereo not drawn)", "values": [
      {"measurement": "AC50", "setting": "[1]", "value": "6.31 µM [falling, partial curve]"}
    ]},
    {"compound": "Cc1ccn2cc(-c3ccc(O)c(O)c3)nc2c1", "values": [
      {"measurement": "AC50", "setting": "[1]", "value": "0.112 µM [rising, full curve, poor fit]"}
    ]},
    {"compound": "Cc1ccc(N2C(=O)C3C(C2=O)C(C(=O)c2ccc(Cl)cc2)N2CCCC32)cc1", "note": "(stereo not drawn)", "values": [
      {"measurement": "AC50", "setting": "[1]", "value": "11.6 µM [falling, partial curve]"}
    ]},
    {"compound": "O=C(Nc1nnc(SCC(=O)N2CCCCC2)s1)C1CCCCC1", "values": [
      {"measurement": "AC50", "setting": "[1]", "value": "25.9 µM [rising, partial curve, poor fit]"}
    ]},
    {"compound": "CCOC(=O)c1c(C2COc3ccccc3O2)csc1N", "note": "(stereo not drawn)", "values": [
      {"measurement": "AC50", "setting": "[1]", "value": "23.1 µM [falling, partial curve, poor fit]"}
    ]},
    {"compound": "O=C(O)CCC(=O)Nc1ccc(Cc2ccc(NC(=O)CCC(=O)O)cc2)cc1", "values": [
      {"measurement": "AC50", "setting": "[1]", "value": "10.3 µM [rising, single point]"}
    ]},
    {"compound": "CCCOc1ccc(/C(O)=C2/C(=O)C(=O)N(CCN(C)C)C2c2ccco2)cc1", "note": "(stereo not drawn)", "values": [
      {"measurement": "AC50", "setting": "[1]", "value": "2.91 µM [rising, partial curve, poor fit]"}
    ]},
    {"compound": "Cc1ccc2nc(/C(C#N)=C/c3ccccc3C(=O)O)[nH]c2c1", "values": [
      {"measurement": "AC50", "setting": "[1]", "value": "11.2 µM [falling, single point]"}
    ]}
  ]
}
